Source: publication PMC3808333

Target: T1, AtTPX2-GFP (Arabidopsis thaliana targeting protein for Xklp2 fused to GFP) (Arabidopsis thaliana) (UniProt F4I2H7)
T1 sequence: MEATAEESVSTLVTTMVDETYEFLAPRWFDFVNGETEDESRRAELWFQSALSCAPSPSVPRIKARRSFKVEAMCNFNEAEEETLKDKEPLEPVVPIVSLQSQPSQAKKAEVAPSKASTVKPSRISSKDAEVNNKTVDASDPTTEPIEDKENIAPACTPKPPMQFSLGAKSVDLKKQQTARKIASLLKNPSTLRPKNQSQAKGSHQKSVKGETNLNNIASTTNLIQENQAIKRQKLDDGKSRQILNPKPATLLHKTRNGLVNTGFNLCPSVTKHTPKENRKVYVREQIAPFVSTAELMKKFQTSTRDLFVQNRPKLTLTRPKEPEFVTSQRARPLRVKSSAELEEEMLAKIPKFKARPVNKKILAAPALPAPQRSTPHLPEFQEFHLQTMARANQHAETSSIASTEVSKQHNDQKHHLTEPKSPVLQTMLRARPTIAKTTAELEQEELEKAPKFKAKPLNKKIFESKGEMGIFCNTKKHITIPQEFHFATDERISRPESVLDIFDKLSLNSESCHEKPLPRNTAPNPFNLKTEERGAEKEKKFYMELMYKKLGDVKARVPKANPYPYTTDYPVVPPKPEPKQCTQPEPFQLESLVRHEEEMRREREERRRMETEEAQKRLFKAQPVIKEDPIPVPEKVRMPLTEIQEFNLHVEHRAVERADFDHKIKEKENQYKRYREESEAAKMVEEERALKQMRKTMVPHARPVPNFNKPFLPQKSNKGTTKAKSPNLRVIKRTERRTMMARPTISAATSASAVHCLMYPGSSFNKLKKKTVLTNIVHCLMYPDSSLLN
Assay: co-IP; GFP-Trap A beads with extract of A. thaliana cell culture expressing AtTPX2-GFP (10,000 g supernatant, 3-4 mg/ml protein, used directly or solubilized by 1% NP-40), 1.5 h at 4 °C; elution with glycine pH 2.5; immunoblot; GFP immunoprecipitate from wild-type Ler culture as negative control

- binding: binds
Substance: importin

These are yes or no findings as the source states them, for the method shown. Binding seen in cells or lysates may run through a third protein. Binding can be weak; no strength is given. Tags and fused reporters may be left off the sequences shown.
